Results deposited as PubChem BioAssay AID1259254 (NCATS, 2017)
Aim: 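Gene knock-downs that lead to re-replication, shown by excess G2 DNA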 (primary screen). System: human HCT116 colorectal cancer cells. Knock-down reagent: single siRNA against human genes. Duration: 3 days. Read-out: 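Nuclei stained with Hoechst and imaged; cell-cycle phase assigned by DNA content; G2 share scaled per plate, non-targeting siRNA 0%, GMNN siRNA 100%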. Direction: G2 robust z-score and G2 cells, % of GMNN control: higher = more G2 cells, more excess DNA replication. Rule for the call: 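Active siRNAs have a G2 robust z of 5 or more median absolute deviations over the median, which in these data means about 38% or higher of GMNN control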.
This is an unselected part of about 59,000 reagents tested. Over the whole deposit, about 1,550 (2.6%) were called active. 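G2 share is only a proxy for re-replication; each gene was hit by three separate siRNAs, and active genes were retested.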 The numbers tell different reagents against one gene apart. Further read-outs or replicates are left out here. Not stated in the record: the amount of reagent.

gene,reagent no.,G2 robust z-score,"G2 cells, % of GMNN control",call
KRT26 (GeneID 353288),1,-0.529,-0.755,inactive
KRT26 (GeneID 353288),2,-0.239,1.29,inactive
KRT26 (GeneID 353288),3,-0.382,0.282,inactive
JRKL (GeneID 8690),1,-1.21,-5.54,inactive
JRKL (GeneID 8690),2,-0.42,0.0116,inactive
JRKL (GeneID 8690),3,0.322,5.23,inactive
NOM1 (GeneID 64434),1,-0.599,-1.25,inactive
NOM1 (GeneID 64434),2,-0.103,2.24,inactive
NOM1 (GeneID 64434),3,1.19,11.3,inactive
MICU3 (GeneID 286097),1,-0.622,-1.41,inactive
MICU3 (GeneID 286097),2,0.337,5.34,inactive
MICU3 (GeneID 286097),3,-0.0744,2.44,inactive
AP3B1 (GeneID 8546),1,1.78,15.5,inactive
AP3B1 (GeneID 8546),2,-0.979,-3.92,inactive
AP3B1 (GeneID 8546),3,0.265,4.83,inactive
PAK5 (GeneID 57144),1,-0.351,0.495,inactive
PAK5 (GeneID 57144),2,-0.548,-0.885,inactive
PAK5 (GeneID 57144),3,-0.759,-2.37,inactive
LINC02523 (GeneID 643623),1,0.35,5.43,inactive
LINC02523 (GeneID 643623),2,-0.382,0.282,inactive
LINC02523 (GeneID 643623),3,0.431,6,inactive
ZW10 (GeneID 9183),1,0.896,9.27,inactive
ZW10 (GeneID 9183),2,-1.03,-4.31,inactive
ZW10 (GeneID 9183),3,1.03,10.2,inactive
CD300A (GeneID 11314),1,1.53,13.7,inactive
CD300A (GeneID 11314),2,-0.914,-3.46,inactive
CD300A (GeneID 11314),3,-0.873,-3.17,inactive
TKTL2 (GeneID 84076),1,4.68,35.9,inactive
TKTL2 (GeneID 84076),2,1.44,13.1,inactive
TKTL2 (GeneID 84076),3,1.24,11.7,inactive

Part of the list above, set out differently:
gene | reagent no. | G2 robust z-score | G2 cells, % of GMNN control | call
LINC02523 (GeneID 643623) | 2 | -0.382 | 0.282 | inactive
LINC02523 (GeneID 643623) | 3 | 0.431 | 6 | inactive
